Some of the results follow. The calls rarely recur for the same compound in another form.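 Kinases were expressed as nanoluciferase fusions in K562 cells and luminescence was read every 4 h between 2 and 18 h as percent of control, DMSO set to 100% and a positive control to 0%. A time point counts as decreased when the signal drops significantly (2 sigma). The hit call is the authors' own, does not follow from the count of time points alone, and its rule is not shown.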
Biological target: PDK1 (UniProt Q15118)
Test: number of time points (of 5) at which kinase-Nluc abundance scored as decreased, DMSO-normalised (count); higher = more persistent destabilization
Details: K562; 2-18 h

By UniProt entry, the sequences of proteins in these tests, tags left out.
UniProt Q15118, whole entry, looked up: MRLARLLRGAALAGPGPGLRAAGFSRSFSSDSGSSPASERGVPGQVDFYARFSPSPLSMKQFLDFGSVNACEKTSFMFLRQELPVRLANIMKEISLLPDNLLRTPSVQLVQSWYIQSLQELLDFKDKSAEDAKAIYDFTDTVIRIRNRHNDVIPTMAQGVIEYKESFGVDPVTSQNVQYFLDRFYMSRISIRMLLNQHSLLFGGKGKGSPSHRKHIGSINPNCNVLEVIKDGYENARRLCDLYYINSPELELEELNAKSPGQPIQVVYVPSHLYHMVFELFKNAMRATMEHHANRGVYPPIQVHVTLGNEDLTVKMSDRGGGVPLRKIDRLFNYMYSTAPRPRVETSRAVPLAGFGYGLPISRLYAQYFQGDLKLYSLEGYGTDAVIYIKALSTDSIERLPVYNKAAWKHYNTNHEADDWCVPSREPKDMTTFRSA

Structure (SMILES) | number of time points
CN1C(=O)[C@@H](NC(=O)c2n[nH]c(Cc3ccccc3)n2)COc2ccccc21 (10 µM) | 0
O=C1NC(=Nc2c(Cl)cccc2Cl)S/C1=C\c1ccc2nccnc2c1 (2.5 µM) | 0
Cc1cccc(-c2[nH]c(C(C)(C)C)nc2-c2ccc3nccnc3c2)n1 (10 µM) | 0
O=C(Nc1cccc(C(F)(F)F)c1)c1cccc2cc(Oc3cc(CO)ncn3)ccc12 (10 µM) | 0
CNc1cc(Nc2cccn(-c3ccccn3)c2=O)nn2c(C(=O)N[C@@H]3C[C@@H]3F)cnc12 (2.5 µM) | 0
Cc1ccn2c(C(=O)C(=O)c3ccccc3)c(-c3ccccc3)nc2c1 (10 µM) | 0
COc1cc(N2CCOCC2)ccc1Nc1ncc(Cl)c(Nc2ccccc2NS(C)(=O)=O)n1 (2.5 µM) | 0
O=C(NC1CCOCC1)c1ccc(-c2cc(-c3c[nH]nc3-c3ccccn3)ccn2)cc1 (10 µM) | 0
O=C1NC(=O)/C(=C/c2ccc3nccc(-c4ccncc4)c3c2)S1 (10 µM) | 0
Cc1ncc(NC(=O)NC2c3ccccc3-c3ccccc32)c(-c2ccccc2)n1 (10 µM) | 0
CC(C)C[C@@H](C(=O)Nc1ccn(C[C@@H](O)CO)n1)N1CC(Oc2ccccc2Cl)=CC1=O [Dorzagliatin] (10 µM) | 0
O=C1O[C@H]([C@@H](O)CO)C(O)=C1OP(=O)(O)O [2-Phospho-L-ascorbic acid (trisodium)] (10 µM) | 0
C[C@@H]1CC(=O)c2c(ccc3c2C(=O)c2cccc(O)c2C3=O)C1 [Ochromycinone] (10 µM) | 0

Shown field by field: entries from further up.
Cc1ccn2c(C(=O)C(=O)c3ccccc3)c(-c3ccccc3)nc2c1 (10 µM)
  number of time points: 0
COc1cc(N2CCOCC2)ccc1Nc1ncc(Cl)c(Nc2ccccc2NS(C)(=O)=O)n1 (2.5 µM)
  number of time points: 0
